From publication PMC6348303
No constants are given. Whether binding was seen depends on the method and setting. Binding seen in cells or lysates may run through a third protein. Some results given as binding are weak or reduced against the parent protein; the word gives no strength. For some assays here: Sequences can lack the tags named with a protein.

By UniProt entry, the sequences of proteins in these tests, tags left out. Residues count along the entry.
UniProt Q99805, residues 29-663: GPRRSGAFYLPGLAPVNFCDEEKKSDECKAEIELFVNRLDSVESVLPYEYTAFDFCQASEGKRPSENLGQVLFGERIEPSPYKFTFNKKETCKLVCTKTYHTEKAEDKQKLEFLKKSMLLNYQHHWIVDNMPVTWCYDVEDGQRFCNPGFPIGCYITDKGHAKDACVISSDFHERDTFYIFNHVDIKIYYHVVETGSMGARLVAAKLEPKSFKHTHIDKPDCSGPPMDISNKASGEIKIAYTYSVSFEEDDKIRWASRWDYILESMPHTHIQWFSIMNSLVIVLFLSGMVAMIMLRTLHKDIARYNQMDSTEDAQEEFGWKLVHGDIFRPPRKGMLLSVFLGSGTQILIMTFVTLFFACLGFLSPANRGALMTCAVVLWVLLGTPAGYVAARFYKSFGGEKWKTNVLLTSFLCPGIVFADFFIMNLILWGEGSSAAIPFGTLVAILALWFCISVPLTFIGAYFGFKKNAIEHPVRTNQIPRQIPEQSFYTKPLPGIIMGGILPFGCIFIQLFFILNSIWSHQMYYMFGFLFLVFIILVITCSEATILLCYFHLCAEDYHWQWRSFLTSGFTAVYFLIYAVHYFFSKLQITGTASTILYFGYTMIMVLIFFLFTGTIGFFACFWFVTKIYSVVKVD

T1: Gb3S-NG (Gb3 synthase with moxNeonGreen fused to its C-terminus) (human) (UniProt Q9NPC4)
T1 sequence: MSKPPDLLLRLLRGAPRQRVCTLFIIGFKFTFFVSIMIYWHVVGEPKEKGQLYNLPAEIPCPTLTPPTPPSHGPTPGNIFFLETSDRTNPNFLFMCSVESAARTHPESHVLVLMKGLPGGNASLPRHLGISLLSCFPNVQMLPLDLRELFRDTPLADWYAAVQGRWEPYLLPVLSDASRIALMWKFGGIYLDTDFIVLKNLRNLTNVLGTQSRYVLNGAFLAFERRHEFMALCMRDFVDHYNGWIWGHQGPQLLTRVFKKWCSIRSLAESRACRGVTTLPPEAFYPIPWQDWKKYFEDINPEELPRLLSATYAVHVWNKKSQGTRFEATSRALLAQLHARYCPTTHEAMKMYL


What was measured:
[1] = target: T1, Gb3S-NG (Gb3 synthase with moxNeonGreen fused to its C-terminus) (human); assay: co-IP; spHA-TM9SF2 transfected into several GT-NG-expressing cell lines; immunoprecipitation (Figure S6E)
[2] = target: spHA-TM9SF2 (transmembrane 9 superfamily 2 with an HA-tag inserted following the putative signal peptide) (UniProt Q99805); assay: co-IP; immunoprecipitation with anti-HA agarose beads of spHA-TM9SF2, spHA-TM9SF2 CΔ3 or GRINA TM4-6-HA; Gb3 synthase detected (Figure S6D)

binding [1]	binding [2]	Molecule
binds		spHA-TM9SF2 (transmembrane 9 superfamily 2 with an HA-tag inserted following the putative signal peptide) (from UniProt Q99805 29-663)
	binds	Gb3 synthase (α1,4 galactosyltransferase) (enzyme, UniProt Q9NPC4 1-353) MSKPPDLLLRLLRGAPRQRVCTLFIIGFKFTFFVSIMIYWHVVGEPKEKGQLYNLPAEIPCPTLTPPTPPSHGPTPGNIFFLETSDRTNPNFLFMCSVESAARTHPESHVLVLMKGLPGGNASLPRHLGISLLSCFPNVQMLPLDLRELFRDTPLADWYAAVQGRWEPYLLPVLSDASRIALMWKFGGIYLDTDFIVLKNLRNLTNVLGTQSRYVLNGAFLAFERRHEFMALCMRDFVDHYNGWIWGHQGPQLLTRVFKKWCSIRSLAESRACRGVTTLPPEAFYPIPWQDWKKYFEDINPEELPRLLSATYAVHVWNKKSQGTRFEATSRALLAQLHARYCPTTHEAMKMYL
